Patent US8637664B2, “Alkyl 4- [4- (5-oxo-2,3,5, 11a-tetrahydo-5H-pyrrolo [2, 1-c] [1,4] benzodiazepine-8-yloxy)-butyrylamino]-1H-pyrrole-2-carboxylate derivatives and related compounds for the treatment of a proliferative disease” (Spirogen SARL, priority 2005, dated 2014)
For at least one compound, name, drawing or mass did not settle the structure.

Tested on: 262 bp DNA fragment (MS2F or MS2R) of MS2 plasmid
Test: DNase I footprinting on MS2 DNA fragment
Type: binding
Parameters: Footprint Position A / Footprint Position J / Footprint Position K / Footprint Position L / Footprint Position M / Footprint Position B / Footprint Position C / Footprint Position H / Footprint Position I: key to the marks not given beside the values
Method: The sequence selectivity of the six PBD-pyrrole conjugates (21, 23, 25, 27, 29) was evaluated by standard DNA footprinting on a fragment of MS2 as follows, in accordance with the technique described in Martin, C., et al., (Martin, C., et al., Biochemistry, 44(11), 4135-4147 (2005))
Forward (5′-[…]-3′) or reverse (5′-[…]-3′) primer was 5′-end labelled with ^32P by T4 polynucleotide kinase. Labelling mixture contained primer (5 pmol; Sigma-Genosys), 10× kinase buffer (1 μl; Promega), (γ-^32P)-ATP (2μ of 10 μCi/μl, 6000 Ci/mmol; Perkin Elmer Life Sciences), and T4 polynucleotide kinase (10 U; Promega) in a 10 μl final volume. Labelling mix was incubated at 37° C. for 30 minutes followed by inactivation of the kinase at 70° C. for 10 minutes. A 262 bp DNA fragment (MS2F or MS2R) was amplified from the MS2 plasmid using PCR with either labelled forward or reverse primer and the unlabelled primer as required. Reactions were comprised of labelled primer mix (10 μl), 10×PCR buffer (5 μl; Sigma), dNTPs (5 μl; 2.5 mM each of A, C, G and T, Amersham Pharmacia), unlabelled primer as required ([…]), MS2 plasmid template DNA (10 ng) and Taq DNA polymerase (5 U; Sigma) in a 50 μl final volume. Radiolabelled 262-mer was purified by non-denaturing polyacrylamide gel electrophoresis, elution, filtration and EtOH precipitation and was resuspended in a solution of Tris-HCl (10 mM) pH 7.4/NaCl (10 mM) to yield an activity of 200 counts per second per 5 μl when held up, in a pipette tip, to a capped Morgan series 900 mini-monitor.
For DNase I footprinting radiolabelled 262-mer (2 μl) was incubated overnight (16-18 h) with drug solution (388 μl) or in an aqueous buffer [HEPES (20 mM) pH 7.9, NaCl (50 mM), MgCl2 (1 mM), DTT (5 mM), 10% glycerol] in control reactions. Enzymatic cleavage was initiated by addition of DNase I solution (10 μl of 0.05 U/ml; Sigma) in aqueous NaCl (200 mM), MgCl2 (20 mM) and MnCl2 (20 mM) and halted with stop solution [40 μl of NaCl (2.25 M), EDTA (150 mM) pH 8.0, 0.57 μg/μl glycogen (0.57 μg/μl; Roche), poly(dl-dC).poly(dl-dC) DNA (19.3 ng/μl; Amersham Pharmacia)]. From this mixture, digested DNA fragments were prepared for electrophoresis following the protocol of Trauger & Dervan, and were loaded on to a preheated 8% denaturing polyacrylamide gel. Electrophoresis in 1×TBE buffer was allowed to proceed for 100 min at 70 W (1600-2000 V). The gel was the fixed in acetic acid (10% v/v) and methanol (10% v/v) for 15 minutes followed by being blotted onto Whatman 3 mM paper and vacuum-dried at 80° C. for 45 minutes.
Dried gels were stored at room temperature in phosphor storage screens (Molecular Dynamics) for a minimum period of 12 h. Data were collected from exposed screens using a Molecular Dynamics 425E Phosphorlmager and transferred to ImageQuant v1.2 software (Molecular Dynamics) for analysis. Data were expressed as the differential cleavage between control and sample lanes. Peaks were integrated and differential cleavage calculated as ln(fd)−ln(fc); (fd is the fractional cleavage at any particular bond in the presence of drug and fc is the fractional cleavage of the same bond in the control). Maxam-Gilbert G+A marker lanes were prepared in the usual fashion.
The vast majority of footprint sites are common features in the binding profiles of all six conjugates, with only a small number of sites being footprinted by a subset of the family. Even more unexpectedly, no site is footprinted by only one molecule (in fact, the fewest number of conjugates that bind at any single site is four). The differential cleavage plot provides footprinting profiles at a supramaximal concentration colour-coded for each conjugate which illustrates a striking degree of overlap. Although there is no conspicuous change in footprinting patterns as the number of pyrroles units in each conjugate increases, there are changes in two other features, namely, the apparent binding affinity and the width of the footprinted site. […]

SMILES	Footprint Position A	Footprint Position B	Footprint Position C	Footprint Position D	Footprint Position E	Footprint Position F	Footprint Position G	Footprint Position H	Footprint Position I	Footprint Position J	Footprint Position K	Footprint Position L	Footprint Position M
COC(=O)c1cc(NC(=O)c2cc(NC(=O)CCCOc3cc4c(cc3OC)C(=O)N3CCC[C@H]3C=N4)cn2C)cn1C [Compound 23, (11aS) Methyl 4-({4-[4-(7-Methoxy-6-oxo-2,3,5,11a-tetrahydro-5H-pyrrolo[2,1-c][1,4]benzodiazepine-8-yloxy)-butyrylamino]-1-methyl-1H-pyrrole-2-carbonyl}-amino)-1-methyl-1H-pyrrole-2-carboxylate]	++	++	++	+	−	++	+	+++	++	+++	+++	++	++
COC(=O)c1cc(NC(=O)c2cc(NC(=O)c3cc(NC(=O)CCCOc4cc5c(cc4OC)C(=O)N4CCC[C@H]4C=N5)cn3C)cn2C)cn1C [Compound 25, (11aS) Methyl 4-{[4-({4-[4-(7-Methoxy-6-oxo-2,3,5,11a-tetrahydro-5H-pyrrolo[2,1-c][1,4]benzodiazepine-8-yloxy)-butyrylamino]-1-methyl-1H-pyrrole-2-carbonyl]-amino)-1-methyl-1H-pyrrole-2-carbonyl]-amino}-1-methyl-1H-pyrrole-2-carboxylate]	+++	+++	+++	+++	+	+++		+++	+++	++	++	+++	
COC(=O)c1cc(NC(=O)c2cc(NC(=O)c3cc(NC(=O)c4cc(NC(=O)CCCOc5cc6c(cc5OC)C(=O)N5CCC[C@H]5C=N6)cn4C)cn3C)cn2C)cn1C [Compound 27, (11aS) Methyl 4-[(4-{[4-({4-[4-(7-Methoxy-5-oxo-2,3,5,11a-tetrahydro-5H-pyrrolo[2,1-c][1,4]benzodiazepine-8-yloxy)-butyrylamino]-1-methyl-1H-pyrrole-2-carbonyl]-amino)-1-methyl-1H-pyrrole-2-carbonyl]-amino}-1-methyl-1H-pyrrole-2-carbonyl)-amino]-1-methyl-1H-pyrrole-2-carboxylate]	+++	++	++	++	++	+	++	+++	++	++	++	++	+++
COC(=O)c1cc(NC(=O)c2cc(NC(=O)c3cc(NC(=O)c4cc(NC(=O)c5cc(NC(=O)CCCOc6cc7c(cc6OC)C(=O)N6CCC[C@H]6C=N7)cn5C)cn4C)cn3C)cn2C)cn1C [Compound 29, (11aS) Methyl 4-({4-[(4-{[4-({4-[4-(7-Methoxy-5-oxo-2,3,5,11a-tetrahydro-5H-pyrrolo[2,1-c][1,4]benzodiazepine-8-yloxy)-butyrylamino]-1-methyl-1H-pyrrole-2-carbonyl]-amino)-1-methyl-1H-pyrrole-2-carbonyl]-amino}-1-methyl-1H-pyrrole-2-carbonyl)-amino]-1-methyl-1H-pyrrole-2-carbonyl}-amino)-1-methyl-1H-pyrrole-2-carboxylate]	++	++	++	++	+	++	++	+++	+++	+++	++	++	++
